Measured values as given in US10624965B2, “Immunotherapy treatments and compositions” (SUSAVION BIOSCIENCES, INC., priority 2014, dated 2020).
At least one peptide structure holds a part that was inferred or is arguable (an end, a ring closure or a residue). Positions of bridges follow the written chain, without caps; N, C: chain ends. Chains are numbered I, II in the order given. No end group written: not given here.

By UniProt entry, the sequences of proteins in these tests, tags left out.
UniProt Q9UJ71, whole entry: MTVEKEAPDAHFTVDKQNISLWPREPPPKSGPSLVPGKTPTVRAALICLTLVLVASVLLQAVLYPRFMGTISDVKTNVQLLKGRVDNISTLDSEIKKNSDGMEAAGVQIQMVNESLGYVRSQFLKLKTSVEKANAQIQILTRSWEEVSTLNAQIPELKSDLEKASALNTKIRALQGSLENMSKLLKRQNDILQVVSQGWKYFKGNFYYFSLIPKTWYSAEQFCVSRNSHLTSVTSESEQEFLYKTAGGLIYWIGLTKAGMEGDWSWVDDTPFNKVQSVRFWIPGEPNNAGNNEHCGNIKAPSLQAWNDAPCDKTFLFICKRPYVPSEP

Assays:
[1] = tested on: glioma cells (murine GL261 cell line); experiment: Glioma implanted in brain of mice: tumor size and survival; format: in vivo, mice (strain C57BL/6)
B16 tumor cells = experiment: B16 melanoma tumor growth in mice; format: in vivo, C57BL/6 mice; conditions: svL4 1 nmol/g s.c. Q2D from day 0; α-CTLA-4 100 μg i.p. Q3D from day 3
[2] = molecular target: T1, recombinant human CLEC10a (Homo sapiens, UniProt Q8IUN9); experiment: Binding activity of svL4 to human lectin-type receptors: CLEC10a
T1 sequence (Q8IUN9 1-316): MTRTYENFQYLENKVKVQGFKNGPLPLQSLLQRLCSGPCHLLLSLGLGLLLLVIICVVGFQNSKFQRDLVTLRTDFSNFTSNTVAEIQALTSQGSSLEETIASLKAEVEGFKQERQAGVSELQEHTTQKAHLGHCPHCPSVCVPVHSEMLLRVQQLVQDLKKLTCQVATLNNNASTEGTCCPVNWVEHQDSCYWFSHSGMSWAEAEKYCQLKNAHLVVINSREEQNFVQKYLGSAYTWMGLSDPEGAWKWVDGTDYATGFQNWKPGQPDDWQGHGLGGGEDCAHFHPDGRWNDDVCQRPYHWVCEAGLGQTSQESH

Dectin-1 = molecular target: T2, Dectin-1 (Homo sapiens, UniProt Q9BXN2); experiment: Binding activity of svL4 to human lectin-type receptors: Dectin-1
T2 sequence (Q9BXN2 1-247): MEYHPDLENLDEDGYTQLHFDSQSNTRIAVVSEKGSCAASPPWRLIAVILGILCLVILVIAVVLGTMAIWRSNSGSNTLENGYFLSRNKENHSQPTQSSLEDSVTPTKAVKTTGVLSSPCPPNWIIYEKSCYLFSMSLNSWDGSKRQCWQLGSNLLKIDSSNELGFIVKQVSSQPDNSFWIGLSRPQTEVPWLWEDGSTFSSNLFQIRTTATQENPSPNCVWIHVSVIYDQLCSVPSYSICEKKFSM

ASGPR-1 = molecular target: T3, ASGPR-1 (Homo sapiens, UniProt P07306); experiment: Binding activity of svL4 to human lectin-type receptors: ASGPR-1
T3 sequence (P07306 1-291): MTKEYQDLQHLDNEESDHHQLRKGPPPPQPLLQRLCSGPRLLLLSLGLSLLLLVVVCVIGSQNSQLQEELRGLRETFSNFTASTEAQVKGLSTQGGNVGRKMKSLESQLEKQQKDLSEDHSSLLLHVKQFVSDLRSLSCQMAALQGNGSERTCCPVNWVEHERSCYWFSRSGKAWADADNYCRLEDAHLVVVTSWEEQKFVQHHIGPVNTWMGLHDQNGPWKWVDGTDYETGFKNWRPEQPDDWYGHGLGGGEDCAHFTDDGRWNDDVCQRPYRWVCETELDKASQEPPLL

[3] = tested on: serum cytokines and chemokines; experiment: Serum cytokines/chemokines in healthy mice (separate experiment); format: in vivo, Balb/c mice
peritoneal immune cells = experiment: Maturation of peritoneal immune cells in wild-type mice; format: in vivo, mice (strain C57BL/6); conditions: 1 nmol/g s.c. on alternate days
ovarian cancer cell line = format: in vivo
Langerin = Langerin (Homo sapiens, UniProt Q9UJ71); experiment: Binding activity of svL4 to human lectin-type receptors: Langerin

Substance: I: VQATQSNQHTPRGGGSKK-NH2 / II: VQATQSNQHTPRGGGSK / III: VQATQSNQHTPRGGGS / IV: VQATQSNQHTPRGGGS (amide I:17-IV:C, I:18-II:C, II:17-III:C) [svL4, [(VQATQSNQHTPRGGGS)2K]2K—NH2]
- reduction in the size of glioblastoma tumors, dose comparison ([1]; 0.1 nmol/g alone on alternate days vs. higher doses): more effective
- size of the tumor ([1]; day 19 after implantation, svL4 1 nmol/g on alternate days): slightly reduced
- extension of life of the animals ([1]; from the start of treatment): not significantly extended
- Mean volume of melanoma tumors on day 11 (B16 tumor cells): 201 mm^3
- binding activity to CLEC10a [2]: binds strongly
- binding activity to Dectin-1 (Dectin-1): binds strongly
- binding activity to ASGPR-1 (ASGPR-1): binds strongly
- IL-1α, IL-6, IFNγ, TNFα and TGFβ in serum [3]: did not increase
- IL-16, MMP-9, P-selectin, Soggy-1, TLR2, TRAIL, and TIMP-2 in serum [3]: decreased
- CD8+ cells (peritoneal immune cells; day 3): slightly elevated
- CD49b+CD69+ (active) NK (peritoneal immune cells; day 3): strongly elevated
- number of dendritic cells (CD11c+) and activated dendritic cells (peritoneal immune cells; day 3): elevated
- population of macrophages (F4/80+CD11b+) cells (peritoneal immune cells; initial 3 days of treatment): increased dramatically
- development of ascites (ovarian cancer cell line; during treatment with svL4): suppressed development of ascites
- body weight of animals (indication of ascites development) (ovarian cancer cell line; svL4 0.1 nmol/g, treatment from day 45): did not increase beyond the rate of normal growth
- binding activity to Langerin (Langerin): binds strongly
